Assay [1] concerns the target T1, GCSF-R (extracellular domain fused to the Fc region of human IgG1) (UniProt Q99062).
T1 sequence: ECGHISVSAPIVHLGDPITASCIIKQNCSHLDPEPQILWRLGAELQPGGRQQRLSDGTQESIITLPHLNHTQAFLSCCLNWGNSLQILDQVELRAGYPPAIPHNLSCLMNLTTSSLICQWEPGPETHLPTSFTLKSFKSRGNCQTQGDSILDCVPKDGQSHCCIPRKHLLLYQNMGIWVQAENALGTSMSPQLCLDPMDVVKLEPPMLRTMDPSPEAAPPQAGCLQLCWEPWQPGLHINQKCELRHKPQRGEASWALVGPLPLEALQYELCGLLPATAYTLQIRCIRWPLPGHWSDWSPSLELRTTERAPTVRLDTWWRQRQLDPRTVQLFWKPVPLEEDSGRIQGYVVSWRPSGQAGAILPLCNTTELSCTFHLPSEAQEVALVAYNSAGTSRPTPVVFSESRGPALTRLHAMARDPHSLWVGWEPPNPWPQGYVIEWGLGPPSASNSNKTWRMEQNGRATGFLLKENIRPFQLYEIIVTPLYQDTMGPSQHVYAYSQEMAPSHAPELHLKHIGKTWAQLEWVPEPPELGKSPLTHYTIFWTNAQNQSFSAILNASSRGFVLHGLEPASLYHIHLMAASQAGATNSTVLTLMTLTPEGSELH
The assay can be described thus: total internal reflection ellipsometry (TIRE); receptor-Fc held by its Fc region on protein G immobilised covalently on an 11-MUA monolayer on gold; 10 µg/mL of each protein in PBS pH 7.4; standard fully reversible Langmuir kinetics model; both purified.

Assay [2] deals with T2, G-CSF monomer (human), P09919.
T2 chain: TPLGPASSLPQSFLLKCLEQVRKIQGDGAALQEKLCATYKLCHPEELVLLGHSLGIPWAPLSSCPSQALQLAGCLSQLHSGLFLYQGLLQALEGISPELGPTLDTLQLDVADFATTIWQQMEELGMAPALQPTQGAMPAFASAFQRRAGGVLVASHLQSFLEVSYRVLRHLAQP
The assay can be described thus: SEC; calibrated SE-HPLC, TSK-gel G3000 SWXL, 0.1 M Na2HPO4, 0.1 M Na2SO4 pH 7.2, 0.6 mL/min, 22 °C; 10 µg of each protein loaded; both purified. Particulars: remark: other sources report otherwise.

These are yes or no findings as the source states them, for the method shown. For some assays here: Tags and fused reporters may be left off the sequences shown.

Turning to “GCSF-Lα-SCF (from UniProt P09919-2 31-204; P21583 26-190)”, the binding entry in assay [1] is reported as “no binding (tested: 10 µg/mL)”.

B1: G-CSF monomer, P09919-2 31-204 (ligand)
chain: T2 chain
B1: the binding entry in assay [2] is listed as “no binding”.
